Data as given in PubChem BioAssay AID686938 (Drosophila RNAi Screening Center, 2013).
The deposit covers about 23,000 reagents; this is a random part of those that have a named target and a result. Of all reagents, 75 (0.33%) were called active. 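Raw plate signals without normalisation; calls rest on plate z-scores that were not deposited; ratio present for only 364 wells.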 Entries without a mark were called inactive. A plus sign joins genes that one reagent is predicted to hit. Not given: the dose of the treatment.

Assay: 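Fly genes required for calcium entry once internal stores are emptied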 (primary screen)
Cells: Drosophila S2R+ cells
Reagents: long dsRNA against Drosophila genes, about 0.25 µg dsRNA per well, roughly 10,000 cells
Timing: 5 days of knock-down before the calcium assay
Treatment: thapsigargin (SERCA pump blocker) to empty calcium stores; entry signal taken 4 min after adding it
Measured: 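Per-well fluo-4 fluorescence in two replicates, unnormalised, measured in resting cells and 4 min after store depletion by the SERCA blocker thapsigargin; ratio of the two present in few wells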
Scale: calcium entry signal: higher = stronger calcium signal after store depletion; entry to resting ratio: higher = more calcium entry relative to resting level; resting calcium signal: higher = higher resting calcium signal
Rule for the call: 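Called when the plate z-score of the entry-to-rest ratio, mean of duplicates, falls below −3; wells with low overall dye signal (Fmax z below −2) or more than five off-targets excluded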
Meaning of the calls: active = strongly reduced calcium entry; inactive = no strong reduction

no.	Gene	amplicon	calcium entry signal, replicate 1 (fluorescence units)	calcium entry signal, replicate 2 (fluorescence units)	entry to resting ratio	resting calcium signal, replicate 1 (fluorescence units)	resting calcium signal, replicate 2 (fluorescence units)
1	CG42597	DRSC03681	2.95e7	5.21e7		1.47e7	2.14e7
2	Iyd	DRSC10614	3.09e7	3.66e7		1.52e7	1.73e7
3	Iyd	DRSC10615	2.86e7	3.68e7		1.45e7	1.74e7
4	Doa	DRSC13892	2.44e7	3.10e7		1.24e7	1.55e7
5	Doa	DRSC13893	2.80e7	3.22e7		1.28e7	1.78e7
6	Doa	DRSC13895	2.68e7	3.03e7		1.25e7	1.63e7
7	Doa	DRSC13896	2.40e7	3.38e7		1.24e7	1.74e7
8	Doa	DRSC13897	2.36e7	4.05e7		1.10e7	2.07e7
9	Doa	DRSC16650	3.44e7	3.56e7		1.52e7	1.60e7
10	Alg11	DRSC11647	2.00e7	2.66e7		9.17e6	1.86e7
11	CG4404	DRSC19897	3.78e7	5.04e7		2.12e7	2.41e7
12	betaNACtes4	DRSC19801	3.43e7	3.44e7		1.86e7	1.71e7
13	Vm26Ab	DRSC03473	3.79e7	3.10e7		1.80e7	1.68e7
14	pyd	DRSC12712	3.25e7	4.36e7		1.51e7	2.32e7
15	pyd	DRSC14387	3.18e7	3.46e7		1.38e7	1.63e7
16	pyd	DRSC14445	4.81e7	4.13e7		2.45e7	2.01e7
17	pyd	DRSC14509	4.73e7	3.99e7		2.50e7	1.94e7
18	pyd	DRSC16547	3.24e7	3.26e7		1.46e7	1.54e7
19	pyd	DRSC16548	4.81e7	4.65e7		2.48e7	2.06e7
20	pyd	DRSC17041	4.78e7	4.50e7		2.28e7	1.99e7
21	pyd	DRSC21523	3.54e7	3.24e7		2.00e7	1.47e7
22	pyd	DRSC23116	3.89e7	3.53e7		1.83e7	1.58e7
23	CG31642	DRSC02919	4.69e7			2.39e7	
24	Dark	DRSC05922	4.14e7	3.55e7		1.95e7	1.64e7
25	slp1	DRSC00835	4.77e7			2.50e7	
26	ttk	DRSC14078	5.00e7	4.07e7		2.55e7	1.85e7
27	ttk	DRSC17091	2.02e7	2.96e7	1.5	1.33e7	1.70e7
28	CG16956	DRSC02544	3.35e7	2.15e7		1.45e7	1.06e7
29	BRWD3	DRSC15369	4.45e7	2.78e7		2.24e7	1.43e7
30	BRWD3	DRSC16032	3.23e7	3.91e7		1.78e7	1.53e7
31	CG14265	DRSC18591	5.68e7	5.10e7	2	2.82e7	2.10e7
32	dos	DRSC07992	3.29e7	5.40e7		2.29e7	3.34e7
33	dos	DRSC08713	3.97e7	5.23e7		1.93e7	2.21e7
34	dos	DRSC23285	3.36e7	3.84e7		1.74e7	1.83e7
35	phr	DRSC07662	2.34e7	2.93e7		1.13e7	1.29e7
36	CG16957	DRSC02545	3.70e7	2.06e7		1.69e7	1.12e7
37	CG13898	DRSC08368	3.78e7	3.82e7		2.08e7	1.94e7
38	Tep3	DRSC03452	2.75e7	3.74e7		1.33e7	1.67e7
39	CG34217	DRSC05083	3.39e7	5.44e7		1.67e7	2.32e7
40	Drgx	DRSC00278	3.93e7	3.64e7		1.97e7	1.74e7
41	Drgx	DRSC00537	4.34e7	3.44e7		1.99e7	1.75e7
42	ND-PDSW	DRSC00715	4.83e7			2.27e7	
43	COX6AL2 + Ir75d	DRSC10081	1.74e7	3.77e7		8.73e6	1.65e7
44	Tnpo-SR	DRSC00546	4.71e7			2.75e7	
45	PICK1	DRSC01268	3.98e7	4.21e7		2.00e7	1.76e7
46	PICK1	DRSC02936	4.50e7	2.68e7		1.90e7	1.42e7
47	CG2211	DRSC08559	3.53e7	4.93e7		1.72e7	2.08e7
48	PIP4K	DRSC17213	5.00e7	5.71e7	2.1	2.39e7	2.53e7
49	Rh3	DRSC16822	4.39e7	3.75e7		2.10e7	1.68e7
50	CG1636	DRSC18111	2.58e7	3.60e7		1.22e7	1.70e7
51	CG33725	DRSC09183	3.61e7	4.78e7		1.93e7	2.08e7
52	CG12723	DRSC19499	4.84e7	3.16e7		2.25e7	1.66e7
53	peb	DRSC18817	3.43e7	4.06e7		2.01e7	2.20e7
54	peb	DRSC23057	3.73e7	3.68e7		2.09e7	1.61e7
55	CG15211	DRSC19657	3.71e7	4.61e7		1.63e7	2.16e7
56	CG18128	DRSC04304	4.36e7	4.18e7		2.07e7	1.80e7
57	CG10749	DRSC09798	2.64e7	3.47e7		1.35e7	1.69e7
58	CG1648	DRSC06610	3.09e7	4.38e7		1.37e7	2.10e7

Part of the list above in another layout:
{"Gene": "Doa", "amplicon": "DRSC16650", "calcium entry signal, replicate 1 (fluorescence units)": 3.44e7, "calcium entry signal, replicate 2 (fluorescence units)": 3.56e7, "resting calcium signal, replicate 1 (fluorescence units)": 1.52e7, "resting calcium signal, replicate 2 (fluorescence units)": 1.60e7}
{"Gene": "Alg11", "amplicon": "DRSC11647", "calcium entry signal, replicate 1 (fluorescence units)": 2.00e7, "calcium entry signal, replicate 2 (fluorescence units)": 2.66e7, "resting calcium signal, replicate 1 (fluorescence units)": 9.17e6, "resting calcium signal, replicate 2 (fluorescence units)": 1.86e7}
